In publication PMC4859800:
Results are given in words; binding and its absence hold for the method and conditions named.

Assays:
[1] = biological target: T1, Nog1 (Y2H bait, pAS2-1) (S. cerevisiae) (UniProt Q02892); test: two-hybrid; array-based Y2H matrix; preys in pACT2 (PJ69-4a) mated against 23 baits in pAS2-1 (PJ69-4α); growth on SD-Leu-Trp-His + 6 mM 3-AT greater than the negative control after 2 weeks
T1 sequence: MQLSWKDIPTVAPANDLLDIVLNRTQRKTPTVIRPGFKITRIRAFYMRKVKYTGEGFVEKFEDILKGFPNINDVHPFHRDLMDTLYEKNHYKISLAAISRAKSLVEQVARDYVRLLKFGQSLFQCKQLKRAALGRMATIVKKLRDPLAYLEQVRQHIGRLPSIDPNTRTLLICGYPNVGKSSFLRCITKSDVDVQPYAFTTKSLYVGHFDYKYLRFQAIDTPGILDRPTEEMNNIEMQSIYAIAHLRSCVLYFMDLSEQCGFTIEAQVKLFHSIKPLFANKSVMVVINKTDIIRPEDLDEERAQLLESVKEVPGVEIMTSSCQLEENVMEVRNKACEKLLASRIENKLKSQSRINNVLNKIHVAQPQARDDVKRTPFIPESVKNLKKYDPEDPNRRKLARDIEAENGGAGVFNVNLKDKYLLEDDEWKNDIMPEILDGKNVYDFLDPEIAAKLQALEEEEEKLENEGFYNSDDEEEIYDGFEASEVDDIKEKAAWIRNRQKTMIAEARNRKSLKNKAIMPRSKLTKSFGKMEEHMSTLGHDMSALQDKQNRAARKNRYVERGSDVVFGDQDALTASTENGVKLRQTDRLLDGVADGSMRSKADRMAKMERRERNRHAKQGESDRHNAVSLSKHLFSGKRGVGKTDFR

[2] = biological target: T2, Rrp14 (Y2H bait, pAS2-1) (S. cerevisiae) (UniProt P36080); test: as above
T2 sequence: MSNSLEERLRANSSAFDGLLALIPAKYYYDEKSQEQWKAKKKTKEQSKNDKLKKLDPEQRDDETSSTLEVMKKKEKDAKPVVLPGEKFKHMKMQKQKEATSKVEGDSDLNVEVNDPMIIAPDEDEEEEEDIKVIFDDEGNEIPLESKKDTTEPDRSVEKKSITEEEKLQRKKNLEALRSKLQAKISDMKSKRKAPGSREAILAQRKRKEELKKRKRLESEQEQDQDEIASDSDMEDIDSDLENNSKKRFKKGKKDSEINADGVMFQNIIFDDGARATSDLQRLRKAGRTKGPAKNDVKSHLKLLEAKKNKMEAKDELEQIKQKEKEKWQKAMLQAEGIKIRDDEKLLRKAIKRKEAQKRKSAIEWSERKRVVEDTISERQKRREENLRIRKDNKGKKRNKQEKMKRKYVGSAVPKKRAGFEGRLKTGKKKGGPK

B1: Nop4 RRM 1–2 (Y2H prey, pACT2) (domain or fragment, UniProt P37838 1-250)
chain: MEETIENVEVPSSNVSKQNDDGLDMKTLFVRSIPQDVTDEQLADFFSNFAPIKHAVVVKDTNKRSRGFGFVSFAVEDDTKEALAKARKTKFNGHILRVDIAKRRDRSKKTSEVVEKSTPESSEKITGQNNEDEDDADGEDSMLKGKPKLIIRNMPWSCRDPVKLKKIFGRYGTVVEATIPRKRDGKLCGFAFVTMKKISNCRIALENTKDLKIDGRKVAVDFAVQKNRWEDYKKAQPEMNDKDDNESGNE
B1 was tested, and the binding [1] was “no binding” and the binding [2] was “no binding”.
